{"source": "patent US20160089464A1", "about": "“MALODOR REDUCTION COMPOSITIONS” (The Procter & Gamble Company, priority 2014, published 2016)", "test": "Comment Code material properties: vapor pressure, ClogP, probability of ingredient color instability, odor detection threshold, melamine formaldehyde PMC headspace response ratio and leakage, liquid dish neat product liquid-air partition coefficient", "type": "physicochemical", "settings": "Table 1 materials; each letter of the code is one property class (vapor pressure, ClogP, color instability, odor detection threshold, PMC headspace ratio, PMC leakage, liquid dish liquid-air partition coefficient)", "data": [{"smiles": "O=C(c1ccccc1)c1ccccc1", "note": "[Material 655]", "values": [{"measurement": "Comment Code", "value": "DEFHK"}]}]}
